Source: publication PMC12748351, “The TDG protein environment connects active DNA demethylation with chromatin and RNA biology”
Construct, isoform or probe ends are uncertain for at least one entry.

Amino acid sequences for entries named in this document (tags omitted). A change or cut given only in a name is not applied to a line headed by its entry.
UniProt P56581: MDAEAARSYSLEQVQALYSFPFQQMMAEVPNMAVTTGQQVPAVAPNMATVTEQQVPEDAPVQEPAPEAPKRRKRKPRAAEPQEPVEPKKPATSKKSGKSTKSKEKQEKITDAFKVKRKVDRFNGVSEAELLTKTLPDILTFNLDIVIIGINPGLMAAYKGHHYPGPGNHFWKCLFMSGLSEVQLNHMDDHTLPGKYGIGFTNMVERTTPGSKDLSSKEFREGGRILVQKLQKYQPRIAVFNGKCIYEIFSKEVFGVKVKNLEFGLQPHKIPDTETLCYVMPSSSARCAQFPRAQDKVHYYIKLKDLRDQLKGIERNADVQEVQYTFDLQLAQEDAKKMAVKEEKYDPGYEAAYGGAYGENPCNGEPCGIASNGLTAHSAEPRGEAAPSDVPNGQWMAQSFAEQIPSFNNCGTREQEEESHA

Target: TDG (recombinant murine TDG) (Mus musculus) (UniProt P56581)
Assay: competition with a labelled probe
Conditions: Results: higher affinity than lncRNA, Methods call it non-competitor homoduplex; BER buffer: 50 mM HEPES pH 8.0, 70 mM KCl, 0.5 mg/mL BSA, 7 mM MgCl2, 1 mM DTT, RNase inhibitor; RT, 15 min; recombinant protein; letters put together from the description

Question: Does “TAGACATTGCCCTCGAGGTACCATGGATCCGATGTCGACCTCAAACCTAGACGAATTCCG (double strand) [60 bp homoduplex DNA (G·C, unlabeled competitor)]” bind?
Answer: binds
